The supplement of paper PMC12819154, “High-throughput peptide-centric local stability assay extends protein–ligand identification to membrane proteins, tissues and bacteria” (Nature Structural & Molecular Biology, 2025)
This is one part of the list. Most values lie at the level of the controls, where differences are scatter.

Protein sequences, listed by entry. Tags and fused reporters are not part of them. Lines headed by an entry give the natural chain unless they say otherwise; changes in a name come on top.
UniProt Q96SQ5: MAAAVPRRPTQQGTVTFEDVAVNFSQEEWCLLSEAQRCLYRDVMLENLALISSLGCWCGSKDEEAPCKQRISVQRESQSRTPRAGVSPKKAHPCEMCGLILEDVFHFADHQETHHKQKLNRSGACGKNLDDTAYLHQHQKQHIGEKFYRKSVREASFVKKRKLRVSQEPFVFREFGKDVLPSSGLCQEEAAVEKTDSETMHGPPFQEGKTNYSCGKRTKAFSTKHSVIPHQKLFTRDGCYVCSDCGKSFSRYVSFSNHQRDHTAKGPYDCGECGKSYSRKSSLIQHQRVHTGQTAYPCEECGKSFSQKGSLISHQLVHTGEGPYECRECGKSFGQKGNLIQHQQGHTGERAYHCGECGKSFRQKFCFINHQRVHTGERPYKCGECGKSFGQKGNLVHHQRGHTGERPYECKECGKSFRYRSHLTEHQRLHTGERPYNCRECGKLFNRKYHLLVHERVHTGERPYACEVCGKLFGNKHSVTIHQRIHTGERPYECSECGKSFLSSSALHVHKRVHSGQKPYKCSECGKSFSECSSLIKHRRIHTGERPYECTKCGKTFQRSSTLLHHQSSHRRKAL
UniProt Q99569: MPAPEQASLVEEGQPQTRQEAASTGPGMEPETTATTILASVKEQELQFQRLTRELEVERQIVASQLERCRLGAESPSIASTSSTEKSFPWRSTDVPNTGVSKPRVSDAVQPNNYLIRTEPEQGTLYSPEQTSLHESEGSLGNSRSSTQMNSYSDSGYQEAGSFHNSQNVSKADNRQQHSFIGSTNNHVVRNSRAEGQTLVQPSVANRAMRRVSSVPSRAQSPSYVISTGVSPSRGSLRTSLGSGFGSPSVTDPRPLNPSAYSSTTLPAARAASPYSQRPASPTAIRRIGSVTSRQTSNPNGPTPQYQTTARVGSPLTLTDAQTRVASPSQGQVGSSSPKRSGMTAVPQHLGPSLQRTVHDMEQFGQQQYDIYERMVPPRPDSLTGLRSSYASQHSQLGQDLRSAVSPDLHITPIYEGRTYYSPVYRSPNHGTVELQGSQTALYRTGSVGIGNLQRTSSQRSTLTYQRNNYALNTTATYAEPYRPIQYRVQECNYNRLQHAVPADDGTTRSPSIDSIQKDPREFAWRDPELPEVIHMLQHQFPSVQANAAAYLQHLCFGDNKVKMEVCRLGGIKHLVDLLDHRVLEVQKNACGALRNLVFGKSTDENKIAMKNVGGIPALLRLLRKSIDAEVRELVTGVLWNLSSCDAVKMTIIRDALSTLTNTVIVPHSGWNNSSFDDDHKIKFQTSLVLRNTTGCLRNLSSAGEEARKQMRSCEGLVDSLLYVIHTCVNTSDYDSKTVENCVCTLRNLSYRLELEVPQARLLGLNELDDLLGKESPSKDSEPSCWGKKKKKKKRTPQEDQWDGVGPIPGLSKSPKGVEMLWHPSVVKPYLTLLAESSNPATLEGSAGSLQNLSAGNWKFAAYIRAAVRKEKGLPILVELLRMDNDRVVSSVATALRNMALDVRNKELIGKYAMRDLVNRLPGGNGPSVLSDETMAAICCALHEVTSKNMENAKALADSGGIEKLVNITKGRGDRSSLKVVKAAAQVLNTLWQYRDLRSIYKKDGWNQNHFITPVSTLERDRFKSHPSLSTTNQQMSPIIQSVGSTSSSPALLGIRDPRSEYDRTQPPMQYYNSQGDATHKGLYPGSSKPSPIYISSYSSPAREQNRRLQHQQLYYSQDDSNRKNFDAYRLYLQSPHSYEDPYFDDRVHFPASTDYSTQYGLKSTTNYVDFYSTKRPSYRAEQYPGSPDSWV
UniProt Q9BSR8: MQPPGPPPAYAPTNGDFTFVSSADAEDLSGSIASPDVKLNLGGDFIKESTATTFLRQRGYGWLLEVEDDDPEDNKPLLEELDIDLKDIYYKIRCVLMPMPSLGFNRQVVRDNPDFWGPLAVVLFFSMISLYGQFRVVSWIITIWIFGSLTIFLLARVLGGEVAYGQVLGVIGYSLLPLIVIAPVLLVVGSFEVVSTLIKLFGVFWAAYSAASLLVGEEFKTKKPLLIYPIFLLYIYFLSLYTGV
UniProt Q96TC7: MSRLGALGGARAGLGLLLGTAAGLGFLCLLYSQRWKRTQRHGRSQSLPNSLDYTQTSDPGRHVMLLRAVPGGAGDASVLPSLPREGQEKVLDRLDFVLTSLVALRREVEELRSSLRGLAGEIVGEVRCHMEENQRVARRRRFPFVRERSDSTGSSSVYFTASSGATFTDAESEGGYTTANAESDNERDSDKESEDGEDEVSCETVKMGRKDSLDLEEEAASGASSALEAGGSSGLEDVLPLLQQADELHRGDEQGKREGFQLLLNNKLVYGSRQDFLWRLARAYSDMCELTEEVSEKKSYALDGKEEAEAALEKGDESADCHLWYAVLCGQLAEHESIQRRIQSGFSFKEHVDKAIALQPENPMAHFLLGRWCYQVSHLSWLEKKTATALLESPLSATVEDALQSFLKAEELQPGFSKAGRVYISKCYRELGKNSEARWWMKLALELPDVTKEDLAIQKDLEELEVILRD
UniProt Q9BRX5: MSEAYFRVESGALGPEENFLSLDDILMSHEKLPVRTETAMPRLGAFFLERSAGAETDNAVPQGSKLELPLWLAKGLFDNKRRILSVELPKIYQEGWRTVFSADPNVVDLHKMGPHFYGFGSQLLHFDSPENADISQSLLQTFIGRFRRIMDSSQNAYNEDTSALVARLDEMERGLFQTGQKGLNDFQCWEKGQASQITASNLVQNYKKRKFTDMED
UniProt Q9BUA3: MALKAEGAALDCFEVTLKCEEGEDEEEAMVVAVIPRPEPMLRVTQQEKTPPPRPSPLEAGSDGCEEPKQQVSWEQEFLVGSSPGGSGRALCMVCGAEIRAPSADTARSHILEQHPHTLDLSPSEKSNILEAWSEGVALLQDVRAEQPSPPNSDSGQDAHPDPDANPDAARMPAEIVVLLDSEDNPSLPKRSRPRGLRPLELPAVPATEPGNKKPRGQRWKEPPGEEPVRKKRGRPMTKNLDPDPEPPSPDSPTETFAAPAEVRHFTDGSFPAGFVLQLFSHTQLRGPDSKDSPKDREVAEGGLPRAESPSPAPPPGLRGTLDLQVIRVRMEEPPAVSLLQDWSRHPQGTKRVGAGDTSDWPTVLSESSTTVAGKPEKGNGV
UniProt Q96T49: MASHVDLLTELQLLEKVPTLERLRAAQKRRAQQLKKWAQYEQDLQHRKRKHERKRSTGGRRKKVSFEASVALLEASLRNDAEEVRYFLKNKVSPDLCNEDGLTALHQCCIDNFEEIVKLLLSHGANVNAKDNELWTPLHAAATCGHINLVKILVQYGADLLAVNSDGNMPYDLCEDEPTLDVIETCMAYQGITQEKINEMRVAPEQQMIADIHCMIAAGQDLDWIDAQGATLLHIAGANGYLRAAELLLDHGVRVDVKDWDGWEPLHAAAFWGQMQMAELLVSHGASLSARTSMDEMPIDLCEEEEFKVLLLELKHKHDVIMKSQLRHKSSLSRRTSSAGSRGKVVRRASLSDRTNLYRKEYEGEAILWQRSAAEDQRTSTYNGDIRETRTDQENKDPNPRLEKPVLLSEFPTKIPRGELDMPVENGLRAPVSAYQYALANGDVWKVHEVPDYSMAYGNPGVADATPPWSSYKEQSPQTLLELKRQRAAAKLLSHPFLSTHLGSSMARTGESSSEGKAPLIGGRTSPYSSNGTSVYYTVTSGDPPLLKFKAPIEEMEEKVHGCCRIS
UniProt Q9BSU3: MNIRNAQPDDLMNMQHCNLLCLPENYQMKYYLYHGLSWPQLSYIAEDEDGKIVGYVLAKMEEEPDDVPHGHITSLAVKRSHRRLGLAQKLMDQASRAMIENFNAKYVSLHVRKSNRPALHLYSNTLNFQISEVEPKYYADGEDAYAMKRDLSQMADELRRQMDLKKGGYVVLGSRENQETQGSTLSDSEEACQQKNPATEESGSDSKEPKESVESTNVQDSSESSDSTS
UniProt Q9BT43: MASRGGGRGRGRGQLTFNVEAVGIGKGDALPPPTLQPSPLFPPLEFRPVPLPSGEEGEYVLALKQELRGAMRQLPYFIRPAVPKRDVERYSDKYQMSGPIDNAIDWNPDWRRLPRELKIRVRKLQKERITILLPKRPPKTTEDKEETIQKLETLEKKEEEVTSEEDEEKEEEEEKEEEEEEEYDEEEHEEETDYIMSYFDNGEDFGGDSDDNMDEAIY
UniProt Q99551: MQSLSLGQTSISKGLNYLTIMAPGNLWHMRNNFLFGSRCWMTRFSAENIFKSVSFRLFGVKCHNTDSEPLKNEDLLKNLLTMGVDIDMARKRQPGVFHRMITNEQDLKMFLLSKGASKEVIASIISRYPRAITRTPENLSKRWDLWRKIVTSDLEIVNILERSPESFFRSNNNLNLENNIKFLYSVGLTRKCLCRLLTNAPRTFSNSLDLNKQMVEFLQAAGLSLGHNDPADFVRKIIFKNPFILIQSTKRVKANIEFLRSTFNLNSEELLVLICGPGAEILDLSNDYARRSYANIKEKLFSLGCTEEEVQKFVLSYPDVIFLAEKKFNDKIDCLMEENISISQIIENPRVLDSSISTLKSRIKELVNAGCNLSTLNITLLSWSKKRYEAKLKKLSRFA
UniProt Q99943: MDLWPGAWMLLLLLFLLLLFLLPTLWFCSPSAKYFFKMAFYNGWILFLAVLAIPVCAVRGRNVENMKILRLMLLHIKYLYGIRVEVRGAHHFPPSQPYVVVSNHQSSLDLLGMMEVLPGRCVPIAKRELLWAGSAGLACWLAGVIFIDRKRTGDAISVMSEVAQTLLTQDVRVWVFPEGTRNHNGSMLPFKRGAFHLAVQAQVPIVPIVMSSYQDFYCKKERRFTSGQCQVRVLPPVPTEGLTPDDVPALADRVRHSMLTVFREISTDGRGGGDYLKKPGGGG
UniProt Q9BQ87: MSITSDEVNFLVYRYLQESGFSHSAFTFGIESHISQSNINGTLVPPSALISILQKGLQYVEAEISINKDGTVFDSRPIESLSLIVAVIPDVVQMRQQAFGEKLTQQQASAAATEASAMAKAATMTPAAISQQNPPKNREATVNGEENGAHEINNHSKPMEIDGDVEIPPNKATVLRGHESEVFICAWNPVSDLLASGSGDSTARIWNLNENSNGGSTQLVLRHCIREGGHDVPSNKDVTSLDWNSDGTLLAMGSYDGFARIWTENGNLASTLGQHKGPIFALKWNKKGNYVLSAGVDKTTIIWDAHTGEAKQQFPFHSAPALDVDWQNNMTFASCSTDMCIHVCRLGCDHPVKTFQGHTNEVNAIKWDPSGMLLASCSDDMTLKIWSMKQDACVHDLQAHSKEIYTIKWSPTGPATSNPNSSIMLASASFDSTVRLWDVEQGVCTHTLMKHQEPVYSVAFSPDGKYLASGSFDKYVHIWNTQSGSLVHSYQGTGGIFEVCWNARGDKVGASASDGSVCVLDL
UniProt Q9BRA0: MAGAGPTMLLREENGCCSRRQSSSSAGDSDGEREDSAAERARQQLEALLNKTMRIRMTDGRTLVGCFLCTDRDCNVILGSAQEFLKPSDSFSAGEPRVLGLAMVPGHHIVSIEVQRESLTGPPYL
UniProt Q9BU19: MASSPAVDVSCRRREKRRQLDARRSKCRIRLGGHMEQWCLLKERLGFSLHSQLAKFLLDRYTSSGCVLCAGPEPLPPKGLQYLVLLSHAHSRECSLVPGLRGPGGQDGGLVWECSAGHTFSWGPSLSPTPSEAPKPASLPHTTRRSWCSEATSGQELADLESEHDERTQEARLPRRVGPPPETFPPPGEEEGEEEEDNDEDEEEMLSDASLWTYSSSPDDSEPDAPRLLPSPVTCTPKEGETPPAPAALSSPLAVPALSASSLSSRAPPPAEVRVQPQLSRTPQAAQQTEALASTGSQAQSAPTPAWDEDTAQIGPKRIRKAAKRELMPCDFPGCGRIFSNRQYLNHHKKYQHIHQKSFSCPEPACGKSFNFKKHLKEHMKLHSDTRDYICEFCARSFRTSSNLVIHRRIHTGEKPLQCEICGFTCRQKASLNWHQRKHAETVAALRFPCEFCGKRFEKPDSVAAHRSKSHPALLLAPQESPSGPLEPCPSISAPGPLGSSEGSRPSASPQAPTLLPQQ
UniProt Q9BTE0: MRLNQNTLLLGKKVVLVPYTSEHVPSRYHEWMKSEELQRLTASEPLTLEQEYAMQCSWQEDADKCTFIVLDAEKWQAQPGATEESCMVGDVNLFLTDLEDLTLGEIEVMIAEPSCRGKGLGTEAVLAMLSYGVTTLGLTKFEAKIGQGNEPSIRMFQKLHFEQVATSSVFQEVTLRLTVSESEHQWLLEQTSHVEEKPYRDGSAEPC
UniProt Q99574: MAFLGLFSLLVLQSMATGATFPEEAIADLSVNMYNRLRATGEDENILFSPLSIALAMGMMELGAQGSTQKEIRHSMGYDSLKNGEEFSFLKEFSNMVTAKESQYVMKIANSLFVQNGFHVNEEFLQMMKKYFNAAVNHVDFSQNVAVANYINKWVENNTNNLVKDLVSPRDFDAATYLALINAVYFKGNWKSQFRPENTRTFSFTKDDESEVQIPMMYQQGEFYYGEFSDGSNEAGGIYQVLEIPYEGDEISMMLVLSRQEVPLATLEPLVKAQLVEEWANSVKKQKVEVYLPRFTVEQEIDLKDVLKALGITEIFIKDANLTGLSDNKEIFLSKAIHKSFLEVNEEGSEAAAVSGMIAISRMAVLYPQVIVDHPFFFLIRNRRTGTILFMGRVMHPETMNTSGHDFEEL

Compound: Cc1nc(Nc2ncc(C(=O)Nc3c(C)cccc3Cl)s2)cc(N2CCN(CCO)CC2)n1 [dasatinib]
Test: log2 fold change of tryptic peptide abundance, ligand vs vehicle (limited proteolysis) (log2 ratio); higher = more trypsin-susceptible (destabilized)
Conditions: ligand concentration: 5 uM; sample: K562 cleared lysate

Target: UniProt Q96SQ5 (peptide sequence: HSVIPHQK, peptide start residue: 225)
- log2 fold change: -0.477

Target: PKP4 (peptide sequence: TYYSPVYR, peptide start residue: 419) (UniProt Q99569)
- log2 fold change: 0.315

Target: YIPF4 (peptide sequence: LNLGGDFIK, peptide start residue: 39) (UniProt Q9BSR8)
- log2 fold change: 0.147

Target: UniProt Q96TC7 (peptide sequence: WCYQVSHLSWLEKK, peptide start residue: 372)
- log2 fold change: 0.155

Target: GINS3 (peptide sequence: TVFSADPNVVDLHK, peptide start residue: 98) (UniProt Q9BRX5)
- log2 fold change: 0.5

Target: UniProt Q9BUA3 (peptide sequence: WKEPPGEEPVR, peptide start residue: 219)
- log2 fold change: -0.487

Target: TSEN34 (peptide sequence: HHSLALTSFKR, peptide start residue: 78) (UniProt Q9BSV6)
- log2 fold change: -0.349

Target: UniProt Q96T49 (peptide sequence: LEKPVLLSEFPTKIPR, peptide start residue: 402)
- log2 fold change: -0.309

Target: NAA11 (peptide sequence: YYADGEDAYAMKR, peptide start residue: 137) (UniProt Q9BSU3)
- log2 fold change: 0.102

Target: POLR3GL (peptide sequence: QLPYFIRPAVPK, peptide start residue: 73) (UniProt Q9BT43)
- log2 fold change: -0.235

Target: UniProt Q99551 (peptide sequence: KIVTSDLEIVNILER, peptide start residue: 148)
- log2 fold change: 0.175

Target: AGPAT1 (peptide sequence: GGGDYLKKPGGGG, peptide start residue: 271) (UniProt Q99943)
- log2 fold change: -0.0781

Target: UniProt Q9BQ87 (peptide sequence: YLASGSFDK, peptide start residue: 456)
- log2 fold change: -0.188

Target: UniProt Q9BRA0 (peptide sequence: VLGLAMVPGHHIVSIEVQR, peptide start residue: 98)
- log2 fold change: -0.269

Target: ZNF692 (peptide sequence: LGGHMEQWCLLK, peptide start residue: 31) (UniProt Q9BU19)
- log2 fold change: -0.699

Target: UniProt Q9BTE0 (peptide sequence: LNQNTLLLGK, peptide start residue: 3)
- log2 fold change: -0.0404

Target: SERPINI1 (peptide sequence: HSMGYDSLK, peptide start residue: 74) (UniProt Q99574)
- log2 fold change: 0.286

Target: KCTD15 (peptide sequence: YYQLQPMVR, peptide start residue: 140) (UniProt Q96SI1)
- log2 fold change: 0.349
